Patent publication US7923535B2, “Tryptophan as a functional replacement for ADP-ribose-arginine in recombinant proteins” (The United States of America as represented by the …, priority 2002, dated 2011)
Some compounds share one wording; it may come from a single statement.

Assay: Chemical sensitivity of ADP-ribose bonds to acid, hydroxylamine and mercuric chloride
Design: species or system rat
Conditions: auto-ADP-ribosylated protein, 2 hours at 37° C.; for release of [^32P]ADP-ribose radiolabel by hydroxylamine: 2M NH2OH

Molecule | release of [^32P]ADP-ribose radiolabel by hydroxylamine | release of [^32P]ADP-ribose by hydroxylamine, mercury chloride or acid
ART2b: rat ADP-ribosyltransferase ART2b (RT6.2), SEQ ID NO:12, wild type (protein, listed as Rattus norvegicus) MPSNICKFFLTWWLIQQVTGLTGPLMLDTAPNAFDDQYEGCVNKMEEKAPLLLQEDFNMNAKLKVAWEEAKKRWNNIKPSRSYPKGFNDFHGTALVAYTGSIAVDFNRAVREFKENPGQFHYKAFHYYLTRALQLLSNGDCHSVYRGTKTRFHYTGAGSVRFGQFTSSSLSKKVAQSQEFFSDHGTLFIIKTCLGVYIKEFSFRPDQEEVLIPGYEVYQKVRTQGYNEIFLDSPKRKKSNYNCLYSSAGARESCVSLFLVVLPSLLVQLLCLAEP | released the [^32P]ADP-ribose radiolabel | –
ART2a(M81R,Y204R): rat ART2a with M81R and Y204R substitutions (protein, UniProt P17982 21-246, looked up, variant M81R Y204R) T-cell …: LTGPLMLDTAPNAFDDQYEGCVNKMEEKAPLLLKEDFNKSEKLKVAWEEAKKRWNNIKPSRSYPKGFNDFHGTALVAYTGSIGVDFNRAVREFKENPGQFHYKAFHYYLTRALQLLSNGDCHSVYRGTKTRFHYTGAGSVRFGQFTSSSLSKTVAQSPEFFSDDGTLFIIKTCLGVYIKEFSFRPDQEEVLIPGYEVYQKVRTQGYNEIFLDSPKRKKSNYNCLYS | released the [^32P]ADP-ribose radiolabel | –
ART2a(N58A,Y204R): rat ART2a with N58A and Y204R substitutions, non-glycosylated (protein, UniProt P17982 21-246, looked up, variant N58A Y204R) T-cell …: LTGPLMLDTAPNAFDDQYEGCVNKMEEKAPLLLKEDFAKSEKLKVAWEEAKKRWNNIKPSMSYPKGFNDFHGTALVAYTGSIGVDFNRAVREFKENPGQFHYKAFHYYLTRALQLLSNGDCHSVYRGTKTRFHYTGAGSVRFGQFTSSSLSKTVAQSPEFFSDDGTLFIIKTCLGVYIKEFSFRPDQEEVLIPGYEVYQKVRTQGYNEIFLDSPKRKKSNYNCLYS | released the [^32P]ADP-ribose radiolabel | –
ART2b(R204W): rat ART2b with arginine-to-tryptophan substitution at position 204 (protein, UniProt P20974 21-246, looked up, variant R204W) T-cell …: LTGPLMLDTAPNAFDDQYEGCVNKMEEKAPLLLQEDFNMNAKLKVAWEEAKKRWNNIKPSRSYPKGFNDFHGTALVAYTGSIAVDFNRAVREFKENPGQFHYKAFHYYLTRALQLLSNGDCHSVYRGTKTRFHYTGAGSVRFGQFTSSSLSKKVAQSQEFFSDHGTLFIIKTCLGVYIKEFSFWPDQEEVLIPGYEVYQKVRTQGYNEIFLDSPKRKKSNYNCLYS | – | not released
